PubChem BioAssay AID1508597, Cure First – 2020

Test: 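Genes whose silencing sensitises or protects ovarian cancer cells against rucaparib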 (primary screen)
Cell system: human ovarian carcinoma lines grown from tumours: OCI-P5x (papillary serous) and OCI-C5x (clear cell)
Reagents: siRNA pool against human genes, 1.25 pmol siRNA per well
Timing: 72 h or 96 h, depending on the cell culture
Challenge: rucaparib 20 µM (about IC30) or vehicle, present until read-out
Rucaparib or vehicle: Vehicle
Cell line: OCI-C5x (clear cell)
Measurement: 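ATP luminescence measured at 72 or 96 h according to the culture, then normalised and expressed as percent viability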
Reading the numbers: viability, normalised: higher = more viable cells remaining
Call rule: 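a well counts as a hit if its normalised viability is under 80 percent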
Meaning of the calls: active = viability under 80%; inactive = viability 80% or more
Shown is an unselected part of the about 2,100 reagents, under one of the conditions tested. 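Calls flag viability under 80% in either arm, not effects specific to rucaparib; the reference for percent is not stated.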 A reagent listed more than once was tested more than once; the source does not tell the runs apart. The record does not give: the 100% reference.

gene knocked down	technical replicate	viability, normalised (%)	call
FXR1	1	46.4	active
FXR1	2	58.1	active
FXR1	3	53.8	active
DHX33	1	60.3	active
DHX33	2	56.3	active
DHX33	3	56.3	active
QPCT	1	47.8	active
QPCT	2	49.3	active
QPCT	3	57.9	active
CBX5	1	49.6	active
CBX5	1	45	active
CBX5	2	46.6	active
CBX5	2	44.3	active
CBX5	3	35.7	active
CBX5	3	34.7	active
RIF1	1	60.7	active
RIF1	2	55	active
RIF1	3	49.2	active
RPL5	1	19.6	active
RPL5	2	32.3	active
RPL5	3	26.3	active
NUP98	1	32.1	active
NUP98	1	39.8	active
NUP98	2	28.8	active
NUP98	2	36.4	active
NUP98	3	27.6	active
NUP98	3	37.8	active
COQ8B	1	37.1	active
COQ8B	2	40.1	active
COQ8B	3	35.2	active
SMARCC1	1	50.2	active
SMARCC1	2	52.1	active
SMARCC1	3	54.2	active

Next part; the last 3 above are carried over.
gene knocked down	technical replicate	viability, normalised (%)	call
SMARCC1	1	50.2	active
SMARCC1	2	52.1	active
SMARCC1	3	54.2	active
HDAC10	1	40.8	active
HDAC10	2	39.9	active
HDAC10	3	55.8	active
ROBO1	1	33.7	active
ROBO1	2	43.9	active
ROBO1	3	40.1	active
CDKL3	1	50.9	active
CDKL3	2	49.4	active
CDKL3	3	48.7	active
PDE6B	1	51.4	active
PDE6B	2	53.8	active
PDE6B	3	43.9	active
ERRFI1	1	56	active
ERRFI1	2	58	active
ERRFI1	3	61.7	active
RIGI	1	47.7	active
RIGI	2	61.4	active
RIGI	3	48.1	active
LATS1	1	68.7	active
LATS1	1	71.2	active
LATS1	2	71.4	active
LATS1	2	73.8	active
LATS1	3	51.6	active
LATS1	3	38.6	active
